Test results: patent publication US20090253622A1, “USE OF TLR3 AGONISTS FOR THE TREATMENT OF NEURODEGENERATIVE DISORDERS” (Nederlandse Organisatie voor toegepast - …, priority 2006, published 2009)
Some entries share one result that the patent states for a list of compounds.

Tested on: TLR3
Experiment: TLR expression in cultured adult human astrocytes by real-time PCR
Assay type: cell-based
Description: Adult human astrocytes from post-mortem subcortical white matter samples were isolated and cultured as previously described (Bsibsi et al., J Neuropath Exp Neurol 61:1013-1021 [2002]). As determined by specific staining for cellular markers for astrocytes (glial fibrillary acidic protein; GFAP) and microglia (CD68) astrocyte cultures were essentially homogeneous; as a rule all cells expressed GFAP and none of them expressed CD68. When indicated astrocytes were stimulated with 50 μg/mL poly I:C (Amersham Pharmacia Biotech, Piscataway, N.J.) or 200 ng/mL LPS (Sigma-Aldrich, Steinheim, Germany) to activate TLR3 and TLR4, respectively. These doses were selected on the basis of maximum effects in astrocytes. It should be noted that contaminants in the commercial LPS preparation could possibly lead to some level of TLR2 activation in addition to TLR4 by the LPS preparation used but not of TLR3. When stimulated with cytokines, astrocytes were supplied with TNF-α, IFN-γ, IL-1β (each at 500 U/mL), IL-4 (at 250 U/mL), IL-6 (at 200 U/mL), IL-12 (at 50 ng/mL), IL-10 (at 20 ng/mL) and TGF-β (at 12.5 ng/mL) (PeproTech, Rocky Hill, N.Y.). Control cDNA array profiling experiments included treatment with 50 μg/mL cycloheximide for 30 min prior to and during poly I:C treatment, or with 200 U/mL IFNβ (Avonex). Endothelial cells (UVEC) were isolated from umbillical cords and cultured on gelatin-coated dishes in M199 supplemented with 20 nM HEPES, 10% human serum, 10% heat-inactivated NBCS, 150 mg/mL ECGF, 5 U/mL heparin, 100 IU/mL penicillin and […] streptomycin. Total cellular RNA was isolated using RNA-Bee™ as previously described (Bsibsi et al., [2002] supra). Subsequently, RNA was reverse transcribed into cDNA and levels of TLR1-10 and β-actin as a reference were determined by quantitative real-time PCR. The following fluorogenic molecular beacons and primers (Biolegio, Nijmegen, The Netherlands) were used: The β-actin beacon contained 5′ fluorescein VIC, and the 3′ quencher Dabcyl. […] Data were analyzed using sequence detector version 1.7 software.

[1] = stimulation with cytokine, 48 h

With TNF-α the “induction of TLR3 (mRNA relative to untreated astrocytes)” value [1] was “up to 360 fold”.

In the case of IL-6: cytokine, 200 U/mL, the “induction of TLR3 (mRNA relative to untreated astrocytes)” value [1] is reported as “up to 360 fold”.

poly I:C was tested, and the “induction of TLR3 (mRNA relative to untreated astrocytes)” value (stimulation with TLR agonist, 24 h) was “up to 400 fold”.
